# PubChem BioAssay AID1508597 – Cure First, 2020
# Aim: 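Genes whose silencing sensitises or protects ovarian cancer cells against rucaparib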 (primary screen)
# Cell system: human ovarian carcinoma lines grown from tumours: OCI-P5x (papillary serous) and OCI-C5x (clear cell)
# Reagent: siRNA pool against human genes, 1.25 pmol siRNA per well
# Duration: 72 h or 96 h, depending on the cell culture
# Challenge: rucaparib 20 µM (about IC30) or vehicle, present until read-out
# Rucaparib or vehicle: Vehicle
# Cell line: OCI-C5x (clear cell)
# Measurement: 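ATP luminescence measured at 72 or 96 h according to the culture, then normalised and expressed as percent viability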
# Reading the numbers: viability, normalised: higher = more viable cells remaining
# Rule for the call: 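a well counts as a hit if its normalised viability is under 80 percent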
# Meaning of the calls: active = viability under 80%; inactive = viability 80% or more
# This is an unselected part of the about 2,100 reagents, in one setting of the screen. 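Calls flag viability under 80% in either arm, not effects specific to rucaparib; the reference for percent is not stated.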 Entries without a mark were called inactive. A reagent listed more than once was tested more than once; the source does not tell the runs apart. Not stated in the record: the 100% reference.
gene,technical replicate,"viability, normalised (%)"
NME8 (NME/NM23 family member 8),1,44 (active)
NME8 (NME/NM23 family member 8),1,64.7 (active)
NME8 (NME/NM23 family member 8),2,59.5 (active)
NME8 (NME/NM23 family member 8),2,39.7 (active)
NME8 (NME/NM23 family member 8),3,44.8 (active)
NME8 (NME/NM23 family member 8),3,38.8 (active)
KSR2 (kinase suppressor of ras 2),1,60.4 (active)
KSR2 (kinase suppressor of ras 2),2,59.5 (active)
KSR2 (kinase suppressor of ras 2),3,67.7 (active)
DDX25 (DEAD-box helicase 25),1,43.4 (active)
DDX25 (DEAD-box helicase 25),2,40.3 (active)
DDX25 (DEAD-box helicase 25),3,40.1 (active)
IL23A (interleukin 23 subunit alpha),1,47.8 (active)
IL23A (interleukin 23 subunit alpha),2,54.7 (active)
IL23A (interleukin 23 subunit alpha),3,56.8 (active)
MMS19 (MMS19 cytosolic iron-sulfur assembly component),1,31.7 (active)
MMS19 (MMS19 cytosolic iron-sulfur assembly component),2,45.3 (active)
MMS19 (MMS19 cytosolic iron-sulfur assembly component),3,42 (active)
"SPTA1 (spectrin alpha, erythrocytic 1)",1,47.8 (active)
"SPTA1 (spectrin alpha, erythrocytic 1)",2,56.1 (active)
"SPTA1 (spectrin alpha, erythrocytic 1)",3,42.4 (active)
LIG4 (DNA ligase 4),1,42.3 (active)
LIG4 (DNA ligase 4),1,54.2 (active)
LIG4 (DNA ligase 4),2,46.8 (active)
LIG4 (DNA ligase 4),2,44.9 (active)
LIG4 (DNA ligase 4),3,59.1 (active)
LIG4 (DNA ligase 4),3,63.2 (active)
HIF1A (hypoxia inducible factor 1 subunit alpha),1,64.4 (active)
HIF1A (hypoxia inducible factor 1 subunit alpha),2,58.1 (active)
HIF1A (hypoxia inducible factor 1 subunit alpha),3,58.2 (active)
DHX40 (DEAH-box helicase 40),1,39.2 (active)
DHX40 (DEAH-box helicase 40),2,49.9 (active)
DHX40 (DEAH-box helicase 40),3,40.2 (active)
WWC2 (WW and C2 domain containing 2),1,34.2 (active)
WWC2 (WW and C2 domain containing 2),2,38.1 (active)
WWC2 (WW and C2 domain containing 2),3,41.8 (active)
TIPARP (TCDD inducible poly(ADP-ribose) polymerase),1,27.9 (active)
TIPARP (TCDD inducible poly(ADP-ribose) polymerase),2,30.9 (active)
TIPARP (TCDD inducible poly(ADP-ribose) polymerase),3,44.6 (active)
FBXO10 (F-box protein 10),1,50.6 (active)
FBXO10 (F-box protein 10),2,58.1 (active)
FBXO10 (F-box protein 10),3,48.4 (active)
PGK2 (phosphoglycerate kinase 2),1,62.6 (active)
PGK2 (phosphoglycerate kinase 2),2,75.2 (active)
PGK2 (phosphoglycerate kinase 2),3,53.6 (active)
PTEN (phosphatase and tensin homolog),1,66.8 (active)
PTEN (phosphatase and tensin homolog),2,75.3 (active)
PTEN (phosphatase and tensin homolog),3,56.7 (active)
USP16 (ubiquitin specific peptidase 16),1,56.2 (active)
USP16 (ubiquitin specific peptidase 16),2,68.3 (active)
USP16 (ubiquitin specific peptidase 16),3,53.8 (active)
EPHB4 (EPH receptor B4),1,72.9 (active)
EPHB4 (EPH receptor B4),2,66.6 (active)
EPHB4 (EPH receptor B4),3,59.7 (active)
FLT4 (fms related receptor tyrosine kinase 4),1,52.6 (active)
FLT4 (fms related receptor tyrosine kinase 4),1,41.4 (active)
FLT4 (fms related receptor tyrosine kinase 4),2,56.9 (active)
FLT4 (fms related receptor tyrosine kinase 4),2,52.6 (active)
FLT4 (fms related receptor tyrosine kinase 4),3,54.2 (active)
FLT4 (fms related receptor tyrosine kinase 4),3,52 (active)
RB1 (RB transcriptional corepressor 1),1,38.7 (active)
RB1 (RB transcriptional corepressor 1),2,29.9 (active)
RB1 (RB transcriptional corepressor 1),3,28.6 (active)
PDE1A (phosphodiesterase 1A),1,32 (active)
PDE1A (phosphodiesterase 1A),2,41.1 (active)
PDE1A (phosphodiesterase 1A),3,23 (active)
COPS3 (COP9 signalosome subunit 3),1,51.4 (active)
COPS3 (COP9 signalosome subunit 3),2,68.3 (active)
COPS3 (COP9 signalosome subunit 3),3,49.7 (active)
AK5 (adenylate kinase 5),1,49.9 (active)
AK5 (adenylate kinase 5),2,34.4 (active)
AK5 (adenylate kinase 5),3,38.2 (active)
MED11 (mediator complex subunit 11),1,37 (active)
MED11 (mediator complex subunit 11),2,45.3 (active)
MED11 (mediator complex subunit 11),3,41.7 (active)
